No constants are given. Whether binding was seen depends on the method and setting. Some entries that bind do so weakly or less than the wild type. Where a sequence is shown, tags or fusion partners need not be part of it.
Target: T1, GAL4-DBD-fused human RAD52 (Wt) (human) (UniProt P43351)
T1 sequence: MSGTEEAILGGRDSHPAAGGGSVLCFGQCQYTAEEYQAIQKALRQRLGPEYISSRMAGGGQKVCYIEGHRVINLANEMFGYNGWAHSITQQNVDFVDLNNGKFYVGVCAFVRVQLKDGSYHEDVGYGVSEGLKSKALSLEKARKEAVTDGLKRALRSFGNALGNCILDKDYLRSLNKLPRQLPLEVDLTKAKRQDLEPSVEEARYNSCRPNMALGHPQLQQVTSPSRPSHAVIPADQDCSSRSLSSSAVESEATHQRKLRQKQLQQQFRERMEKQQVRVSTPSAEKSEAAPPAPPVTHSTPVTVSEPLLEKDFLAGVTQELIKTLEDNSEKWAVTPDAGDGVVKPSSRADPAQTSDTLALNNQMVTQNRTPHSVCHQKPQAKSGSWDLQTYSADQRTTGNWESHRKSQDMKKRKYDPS
Experiment: two-hybrid; yeast MAV203; GAL4 DBD fusion with NLS-GAL4 AD fusion; His3 reporter, growth on SC-Leu-Trp-His agar with 25 mM 3AT

Protein sequences, listed by entry. Tags and fused reporters are not part of them.
UniProt Q06609: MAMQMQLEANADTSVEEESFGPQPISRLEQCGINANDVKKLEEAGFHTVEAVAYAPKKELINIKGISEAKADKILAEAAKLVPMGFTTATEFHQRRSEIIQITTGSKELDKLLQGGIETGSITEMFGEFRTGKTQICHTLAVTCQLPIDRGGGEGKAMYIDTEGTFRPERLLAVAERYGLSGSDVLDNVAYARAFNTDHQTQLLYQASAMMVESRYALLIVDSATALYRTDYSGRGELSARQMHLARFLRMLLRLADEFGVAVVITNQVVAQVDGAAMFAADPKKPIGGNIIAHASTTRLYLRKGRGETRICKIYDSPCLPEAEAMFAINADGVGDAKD

NLS-GAL4-AD-fused human RAD51 (from UniProt Q06609 1-339)
binding: binds
